# Experimental data taken from the supplement of paper PMC8728848.
# This is one part of the list.
# B1: Epa11 (Candida glabrata) (protein)
# chain: MGSSHHHHHHSSGLVPRGSHMASSNAPNYPVGCSPSVGTQLTPGLSLEVYAYPMDGNNGYCWNATYKDPEFPRSGYLKNKLLGKADGVVGPLNFLAKNKDCSPKVDTLPAGFNFPQPITVTNFTMVLFGYLAPKQSGKYTFKLLADDLLLLNLGATNAFDCCNREATKNNLGEFLAYNLWPNQDKNVTVYLEKGVYYPLRLFFNNRDGGSQLDFSYYFNDSPAPLTDFSGMFFSVPDGAECPARI
# Experiments:
# Assay in all cases: glycan array binding signal (z-score within array); higher = stronger binding
# Details in all cases: glycan notation: IUPAC condensed, linker removed
# GalNAc3S(b1-4)GlcNAc3S = biological target: GalNAc3S(b1-4)GlcNAc3S
# How it was run: (§1)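 The binding signal is a Z-score computed within each array. Data were drawn from 3228 arrays in the Consortium for Functional Glycomics database, restricted to those with a known protein sequence. Scores were averaged over arrays of the same protein sequence at different concentrations or buffers, and over linkers, and negative values can be taken as non-binding.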
# [1] = biological target: GalNAc3S(b1-4)[Fuc(a1-3)]GlcNAc
# How it was run: as §1
# GalNAc4S6S(b1-4)GlcNAc = biological target: GalNAc4S6S(b1-4)GlcNAc
# How it was run: as §1
# GalNAc6S(b1-4)GlcNAc = biological target: GalNAc6S(b1-4)GlcNAc
# How it was run: as §1
# Glc(a1-4)Glc = biological target: Glc(a1-4)Glc
# How it was run: as §1
# [2] = biological target: Glc(a1-4)Glc(a1-4)Glc(a1-4)Glc
# How it was run: as §1
# Glc(a1-6)Glc(a1-6)Glc = biological target: Glc(a1-6)Glc(a1-6)Glc
# How it was run: as §1
# [3] = biological target: Glc(a1-6)Glc(a1-6)Glc(a1-6)Glc
# How it was run: as §1
# Glc(b1-4)Glc = biological target: Glc(b1-4)Glc
# How it was run: as §1
# Glc(b1-6)Glc = biological target: Glc(b1-6)Glc
# How it was run: as §1
# GlcA(b1-3)Gal = biological target: GlcA(b1-3)Gal
# How it was run: as §1
# GlcA(b1-3)GlcNAc = biological target: GlcA(b1-3)GlcNAc
# How it was run: as §1
# GlcA(b1-6)Gal = biological target: GlcA(b1-6)Gal
# How it was run: as §1
# [4] = biological target: GlcA3S(b1-3)Gal(b1-4)GlcNAc(b1-2)Man
# How it was run: as §1
# [5] = biological target: GlcA3S(b1-3)Gal(b1-4)GlcNAc(b1-3)Gal(b1-4)Glc
# How it was run: as §1
# [6] = biological target: GlcNAc(a1-3)Gal(b1-4)GlcNAc
# How it was run: as §1
# [7] = biological target: GlcNAc(a1-4)Gal(b1-3)GlcNAc
# How it was run: as §1
# [8] = biological target: GlcNAc(a1-4)Gal(b1-4)GalNAc
# How it was run: as §1
# [9] = biological target: GlcNAc(a1-4)Gal(b1-4)GlcNAc
# How it was run: as §1
# [10] = biological target: GlcNAc(a1-4)Gal(b1-4)GlcNAc(b1-3)Gal(b1-4)Glc
# How it was run: as §1
# [11] = biological target: GlcNAc(a1-4)Gal(b1-4)GlcNAc(b1-3)Gal(b1-4)GlcNAc
# How it was run: as §1
# [12] = biological target: GlcNAc(a1-4)Gal(b1-4)GlcNAc(b1-3)Gal(b1-4)GlcNAc(b1-3)Gal(b1-4)GlcNAc
# How it was run: as §1
# [13] = biological target: GlcNAc(a1-4)Gal(b1-4)GlcNAc(b1-3)Gal(b1-4)[Fuc(a1-3)]GlcNAc(b1-3)Gal(b1-4)[Fuc(a1-3)]GlcNAc
# How it was run: as §1
# [14] = biological target: GlcNAc(a1-6)Gal(b1-4)GlcNAc
# How it was run: as §1
# [15] = biological target: GlcNAc(b1-2)Gal(b1-3)GalNAc
# How it was run: as §1
# [16] = biological target: GlcNAc(b1-2)Man(a1-3)[GlcNAc(b1-2)Man(a1-6)]Man(b1-4)GlcNAc(b1-4)GlcNAc
# How it was run: as §1
# [17] = biological target: GlcNAc(b1-2)Man(a1-3)[GlcNAc(b1-2)Man(a1-6)]Man(b1-4)GlcNAc(b1-4)[Fuc(a1-6)]GlcNAc
# How it was run: as §1
# [18] = biological target: GlcNAc(b1-2)Man(a1-3)[GlcNAc(b1-4)][GlcNAc(b1-2)Man(a1-6)]Man(b1-4)GlcNAc(b1-4)GlcNAc
# How it was run: as §1
# [19] = biological target: GlcNAc(b1-2)Man(a1-3)[GlcNAc(b1-4)][GlcNAc(b1-2)Man(a1-6)]Man(b1-4)GlcNAc(b1-4)[Fuc(a1-6)]GlcNAc
# How it was run: as §1
# [20] = biological target: GlcNAc(b1-2)[GlcNAc(b1-4)]Man(a1-3)[GlcNAc(b1-2)Man(a1-6)]Man(b1-4)GlcNAc(b1-4)GlcNAc
# How it was run: as §1
# [21] = biological target: GlcNAc(b1-2)[GlcNAc(b1-4)]Man(a1-3)[GlcNAc(b1-4)][GlcNAc(b1-2)Man(a1-6)]Man(b1-4)GlcNAc(b1-4)GlcNAc
# How it was run: as §1
# [22] = biological target: GlcNAc(b1-2)[GlcNAc(b1-4)]Man(a1-3)[GlcNAc(b1-4)][GlcNAc(b1-2)[GlcNAc(b1-6)]Man(a1-6)]Man(b1-4)GlcNAc(b1-4)GlcNAc
# How it was run: as §1
# [23] = biological target: GlcNAc(b1-2)[GlcNAc(b1-4)]Man(a1-3)[GlcNAc(b1-4)][GlcNAc(b1-2)[GlcNAc(b1-6)]Man(a1-6)]Man(b1-4)GlcNAc(b1-4)[Fuc(a1-6)]GlcNAc
# How it was run: as §1
# [24] = biological target: GlcNAc(b1-2)[GlcNAc(b1-6)]Man(a1-6)[GlcNAc(b1-2)Man(a1-3)]Man(b1-4)GlcNAc(b1-4)GlcNAc
# How it was run: as §1
# [25] = biological target: GlcNAc(b1-2)[GlcNAc(b1-6)]Man(a1-6)[GlcNAc(b1-2)Man(a1-3)]Man(b1-4)GlcNAc(b1-4)[Fuc(a1-6)]GlcNAc
# How it was run: as §1
# [26] = biological target: GlcNAc(b1-2)[GlcNAc(b1-6)]Man(a1-6)[GlcNAc(b1-4)][GlcNAc(b1-2)Man(a1-3)]Man(b1-4)GlcNAc(b1-4)GlcNAc
# How it was run: as §1
# GlcNAc(b1-3)Fuc = biological target: GlcNAc(b1-3)Fuc
# How it was run: as §1
# GlcNAc(b1-3)Gal = biological target: GlcNAc(b1-3)Gal
# How it was run: as §1
binder,measurement,setting,value
B1,glycan array binding signal (z-score),GalNAc3S(b1-4)GlcNAc3S,1.57
same,glycan array binding signal (z-score),[1],-0.571
same,glycan array binding signal (z-score),GalNAc4S6S(b1-4)GlcNAc,0.884
same,glycan array binding signal (z-score),GalNAc6S(b1-4)GlcNAc,-0.396
same,glycan array binding signal (z-score),Glc(a1-4)Glc,-1.42
same,glycan array binding signal (z-score),[2],0.482
same,glycan array binding signal (z-score),Glc(a1-6)Glc(a1-6)Glc,-0.516
same,glycan array binding signal (z-score),[3],-0.333
same,glycan array binding signal (z-score),Glc(b1-4)Glc,-1.41
same,glycan array binding signal (z-score),Glc(b1-6)Glc,-0.513
same,glycan array binding signal (z-score),GlcA(b1-3)Gal,-0.056
same,glycan array binding signal (z-score),GlcA(b1-3)GlcNAc,-0.406
same,glycan array binding signal (z-score),GlcA(b1-6)Gal,0.675
same,glycan array binding signal (z-score),[4],0.356
same,glycan array binding signal (z-score),[5],-0.579
same,glycan array binding signal (z-score),[6],-0.193
same,glycan array binding signal (z-score),[7],-0.319
same,glycan array binding signal (z-score),[8],-0.891
same,glycan array binding signal (z-score),[9],0.787
same,glycan array binding signal (z-score),[10],-0.03
same,glycan array binding signal (z-score),[11],0.381
same,glycan array binding signal (z-score),[12],0.433
same,glycan array binding signal (z-score),[13],0.211
same,glycan array binding signal (z-score),[14],-0.229
same,glycan array binding signal (z-score),[15],-0.181
same,glycan array binding signal (z-score),[16],-0.237
same,glycan array binding signal (z-score),[17],-0.329
same,glycan array binding signal (z-score),[18],-0.051
same,glycan array binding signal (z-score),[19],-0.428
same,glycan array binding signal (z-score),[20],-0.457
same,glycan array binding signal (z-score),[21],-0.288
same,glycan array binding signal (z-score),[22],0.044
same,glycan array binding signal (z-score),[23],2.33
same,glycan array binding signal (z-score),[24],-0.476
same,glycan array binding signal (z-score),[25],-0.296
same,glycan array binding signal (z-score),[26],-2.25
same,glycan array binding signal (z-score),GlcNAc(b1-3)Fuc,-0.175
same,glycan array binding signal (z-score),GlcNAc(b1-3)Gal,-0.371

# A section of the results above:
binder,measurement,setting,value
B1,glycan array binding signal (z-score),[21],-0.288
same,glycan array binding signal (z-score),[22],0.044
